The conditions of data set [1]: cited from earlier work.
Another data set has as its system SCN5A. The settings on record: 5 days exposure to 0.1 μM and 1 μM amiodarone (FIG. 8).

`CCN(CC)CC(=O)Nc1c(C)cccc1C` [Lidocaine, lidocaine]: in data set [1], the “typical plasma concentrations in vivo” value is 2 to 6 µg/mL.

With `CCCCc1oc2ccccc2c1C(=O)c1cc(I)c(OCCN(CC)CC)c(I)c1` [amiodarone], in the data set with SCN5A, the “effect on the expression of SCN5A” value is “no effect”. Moreover, in data set [1], the “typical plasma concentrations in vivo” value is 0.5 to 2.5 µg/mL.
